ChEMBL document CHEMBL4303122, “Identification of potential treatments for COVID-19 through artificial intelligence-enabled phenomic analysis of human cells infected with SARS-CoV-2” (2020)
The full ranking holds about 1,600 compounds; the median of “Hit score” is about 0.13, and the highest 2% start at about 0.46. Some of the results follow.

The compounds below were run on SARS-CoV-2 (assay: Antiviral activity against SARS-CoV-2 (USA-WA1/2020 strain) measured by imaging in HRCE cells at MOI 0.4 after 96 hrs (reported as hit score from 0-1 for on-disease vs off-disease activity: scores >0.6 considered hits)).
Assay type: functional, Homo sapiens

SMILES | Hit score
Nc1ccc(C(=O)O)cc1 [AMINOBENZOIC ACID] | 0.2847
CCCCCNC(=N)N/N=C/c1c[nH]c2ccc(OC)cc12 [TEGASEROD] | -0.04384
NS(=O)(=O)c1cc(Cl)c(Cl)c(S(N)(=O)=O)c1 [DICHLORPHENAMIDE] | 0.1613
COc1c(C)c2c(c(O)c1C/C=C(\C)CCC(=O)O)C(=O)OC2 [MYCOPHENOLIC ACID] | 0.03235
O=C(Oc1ccccc1C(=O)O)c1ccccc1O [SALSALATE] | 0.2499
O=C(NCCN1CCOCC1)c1ccc(Cl)cc1 [MOCLOBEMIDE] | 0.1695
C[C@H](Cc1cc2c(c(C(N)=O)c1)N(CCCO)CC2)NCCOc1ccccc1OCC(F)(F)F [SILODOSIN] | 0.3783
NCCNCCNCCN [TRIENTINE] | 0.1736
CC[C@H]1OC(=O)C[C@@H](O)[C@H](C)[C@@H](O[C@@H]2O[C@H](C)[C@@H](O)[C@H](N(C)C)[C@H]2O)[C@@H](CCN2C[C@H](C)C[C@H](C)C2)C[C@@H](C)C(=O)/C=C/C(C)=C/[C@@H]1CO[C@@H]1O[C@H](C)[C@@H](O)[C@@H](OC)[C@H]1OC [TILMICOSIN] | 0.01322
OC(c1cc(C(F)(F)F)nc2c(C(F)(F)F)cccc12)C1CCCCN1 (stereo not drawn) [MEFLOQUINE] | -0.07632
Cc1cc(C)cc(OCC2CNC(=O)O2)c1 (stereo not drawn) [METAXALONE] | 0.2292
COc1ccc(NC(=O)c2ccc(C(=N)N(C)C)cc2)c(C(=O)Nc2ccc(Cl)cn2)c1 [BETRIXABAN] | 0.004778
CC(=O)[C@@]12O[C@](C)(c3ccccc3)O[C@@H]1C[C@H]1[C@@H]3CCC4=CC(=O)CC[C@]4(C)[C@H]3CC[C@@]12C [ALGESTONE ACETOPHENIDE] | 0.1273
CCN(CC)C(=O)/C(C#N)=C/c1cc(O)c(O)c([N+](=O)[O-])c1 [ENTACAPONE] | 0.1988
Nc1nc(N)nc(NC2CC2)n1 [CYROMAZINE] | 0.0904
C[C@]12CCC(=O)C=C1CC[C@@H]1[C@@H]2C(=O)C[C@@]2(C)[C@H]1CC[C@]2(O)C(=O)CO [CORTISONE] | 0.1539
O=C1[C@@H]2[C@H]3CC[C@H](C3)[C@@H]2C(=O)N1C[C@@H]1CCCC[C@H]1CN1CCN(c2nsc3ccccc23)CC1 [LURASIDONE] | 0.4322
CCCN1C[C@H](CSC)C[C@@H]2c3cccc4[nH]cc(c34)C[C@H]21 [PERGOLIDE] | 0.1009
CCOc1cc(CC(=O)N[C@@H](CC(C)C)c2ccccc2N2CCCCC2)ccc1C(=O)O [REPAGLINIDE] | 0.06595
CCOC(=O)C1=C(C)NC(C)=C(C(=O)OCC)C1c1ccccc1/C=C/C(=O)OC(C)(C)C [LACIDIPINE] | 0.0561
CN1[C@@H]2CC[C@H]1C[C@@H](OC(=O)C(CO)c1ccccc1)C2 (stereo partly drawn) [ATROPINE] | 0.04488
CC(C)NCC(O)c1ccc(O)c(O)c1 (stereo not drawn) [ISOPROTERENOL] | 0.1056

SMILES | Hit score
COc1ccc2[nH]c([S@@+]([O-])Cc3ncc(C)c(OC)c3C)nc2c1 [ESOMEPRAZOLE] | 0.09016
Nc1nc2c(ncn2COCCO)c(=O)[nH]1 [ACYCLOVIR] | 0.1075
CC(C)(CCCCCC(O)CCCCCC(C)(C)C(=O)O)C(=O)O [BEMPEDOIC ACID] | 0.1415
CCN(CCO)CCCC(C)Nc1ccnc2cc(Cl)ccc12.O=S(=O)(O)O (stereo not drawn) [HYDROXYCHLOROQUINE SULFATE] | 0.1708
C=C[C@H]1CN2CC[C@H]1C[C@H]2[C@H](O)c1ccnc2ccc(OC)cc12 [QUININE] | 0.1408
N[C@@H](C(=O)N[C@@H]1C(=O)N2C(C(=O)O)=C(Cl)CS[C@H]12)c1ccccc1 [CEFACLOR ANHYDROUS] | 0.3978
CCCCOC(=O)c1ccccc1Nc1cccc(C(F)(F)F)c1 [UFENAMATE] | 0.06382
CCCC[C@H](NC(=O)[C@@H]1[C@@H]2[C@H](CN1C(=O)[C@@H](NC(=O)NC1(CS(=O)(=O)C(C)(C)C)CCCCC1)C(C)(C)C)C2(C)C)C(=O)C(=O)NC1CC1 | 0.1004
COc1ccc(C(=O)c2ccccc2)c(O)c1 [OXYBENZONE] | 0.4514
CCC(C(=O)O)c1ccc(N2Cc3ccccc3C2=O)cc1 (stereo not drawn) [INDOBUFEN] | 0.1057
COc1ncnc(NS(=O)(=O)c2ccc(N)cc2)c1OC [SULFADOXINE] | 0.09937
CCOC(=O)[C@H](CCc1ccccc1)N[C@H]1CCCN2CCC[C@@H](C(=O)O)N2C1=O [CILAZAPRIL] | 0.1586
COc1cc(C(C)=O)ccc1OCCCN1CCC(c2noc3cc(F)ccc23)CC1 [ILOPERIDONE] | 0.03744
CCOc1ccc(Cc2cc([C@]34OC[C@](CO)(O3)[C@@H](O)[C@H](O)[C@H]4O)ccc2Cl)cc1 [ERTUGLIFLOZIN] | 0.1785
C[C@]1(Cn2ccnn2)[C@H](C(=O)O)N2C(=O)C[C@H]2S1(=O)=O [TAZOBACTAM] | 0.04532
CCCCC(CC)COC(=O)C=Cc1ccc(OC)cc1 (stereo not drawn) [OCTINOXATE] | 0.1108
COC(=O)N[C@H](C(=O)N1CCC[C@H]1c1ncc(-c2ccc(-c3ccc(-c4cnc([C@@H]5CCCN5C(=O)[C@@H](NC(=O)OC)C(C)C)[nH]4)cc3)cc2)[nH]1)C(C)C | -0.06011
CCCCCCCCCCCC(=O)OCC(O)CO (stereo not drawn) [GLYCEROL MONOLAURATE] | 0.1728
CC(C(=O)O)c1cccc(C(=O)c2ccccc2)c1 (stereo not drawn) [KETOPROFEN] | -0.03507
CC(C)Cc1ccc(C(C)C(=O)OCc2ccccn2)cc1 (stereo not drawn) [IBUPROFEN PICONOL] | 0.1126
CC[C@H]1CN2CC[C@H]1C[C@@H]2[C@@H](O)c1ccnc2ccc(OC)cc12 [HYDROQUINIDINE] | 0.1882

2 entries from above, field by field:
CCCCCNC(=N)N/N=C/c1c[nH]c2ccc(OC)cc12 [TEGASEROD]
  Hit score: -0.04384
CC(C)Cc1ccc(C(C)C(=O)OCc2ccccn2)cc1 (stereo not drawn) [IBUPROFEN PICONOL]
  Hit score: 0.1126
